Further values from the same series stand in other lists.
Test system: in-house strain of Aspergillus niger
Assay: Heat treatment of in-house Aspergillus niger spores in ice tea with natamycin, visual growth
Assay type: cell-based
Set-up: key: growth (+); no growth (−)
Description: Commercially available ice tea (Lipton, peach flavor, non-carbonated, 1.5 L) was adjusted to high water hardness by adding 1 ml of a solution of 39 g CaCl2 and 27 g MgCl2 added to 934 g water. ⅓ of this ice tea preparation (the pH of which was 3.15) was left as-such, ⅓ of the preparation was enriched with 5 ppm natamycin and ⅓ of the preparation was enriched with 10 ppm natamycin. Samples of 5 ml were made from each preparation in 15 ml sterile plastic tubes. Of each preparation 8 samples were pre-heated to the desired pasteurization temperature using a water bath. Temperatures used were RT, 60, 65, 70, 75, 80, 85 and 90° C. When the desired temperature was reached, 100 μl of a 2500 spores/ml spore suspension of Aspergillus niger ATCC 9029AA was added to each tube. Subsequently, the samples were kept for 30 seconds at the temperature in question in the water bath. Next, the samples were cooled on ice to a temperature of 25° C. Samples were incubated at 25° C. and visually examined for growth (formation of mold flakes or turbidity) for two months. Additionally, samples were enumerated according to ISO protocol 21527-1.2008 on day 0 (before heat treatment) and day 1 (after heat treatment) to count immediate loss of viability. […] For the results, see Table 1. […] For comparative reasons, Example 1 was repeated with an in-house strain of Aspergillus niger. […] For the results, see Table 2.

SMILES: C[C@@H]1C/C=C/C=C/C=C/C=C/[C@H](O[C@@H]2O[C@H](C)[C@@H](O)[C@H](N)[C@@H]2O)C[C@@H]2O[C@](O)(C[C@@H](O)C[C@H]3O[C@@H]3/C=C/C(=O)O1)C[C@H](O)[C@H]2C(=O)O [natamycin]
- growth or no growth (75°C, 10 ppm, day 1): −
- growth or no growth (75°C, 10 ppm, day 2): −
- growth or no growth (75°C, 10 ppm, day 3): −
- growth or no growth (75°C, 10 ppm, day 4): −
- growth or no growth (75°C, 10 ppm, day 5): −
- growth or no growth (75°C, 10 ppm, day 6): −
- growth or no growth (75°C, 10 ppm, day 7): −
- growth or no growth (75°C, 10 ppm, day 8): −
- growth or no growth (75°C, 10 ppm, day 11): −
- growth or no growth (75°C, 10 ppm, day 12): −
- growth or no growth (75°C, 10 ppm, day 13): −
- growth or no growth (75°C, 10 ppm, day 14): −
- growth or no growth (80°C, 5 ppm, day 1): −
- growth or no growth (80°C, 5 ppm, day 2): −
- growth or no growth (80°C, 5 ppm, day 3): −
- growth or no growth (80°C, 5 ppm, day 4): −
- growth or no growth (80°C, 5 ppm, day 5): −
- growth or no growth (80°C, 5 ppm, day 6): −
- growth or no growth (80°C, 5 ppm, day 7): −
- growth or no growth (80°C, 5 ppm, day 8): −
- growth or no growth (80°C, 5 ppm, day 9): −
- growth or no growth (80°C, 5 ppm, day 10): −
- growth or no growth (80°C, 5 ppm, day 11): −
- growth or no growth (80°C, 5 ppm, day 12): −
- growth or no growth (80°C, 5 ppm, day 13): −
- growth or no growth (80°C, 5 ppm, day 14): −
- growth or no growth (80°C, 10 ppm, day 1): −
- growth or no growth (80°C, 10 ppm, day 2): −
- growth or no growth (80°C, 10 ppm, day 3): −
- growth or no growth (80°C, 10 ppm, day 4): −
- growth or no growth (80°C, 10 ppm, day 5): −
- growth or no growth (80°C, 10 ppm, day 6): −
- growth or no growth (80°C, 10 ppm, day 7): −
- growth or no growth (80°C, 10 ppm, day 8): −
- growth or no growth (80°C, 10 ppm, day 9): −
- growth or no growth (80°C, 10 ppm, day 10): −
- growth or no growth (80°C, 10 ppm, day 11): −
- growth or no growth (80°C, 10 ppm, day 12): −
- growth or no growth (80°C, 10 ppm, day 13): −
- growth or no growth (80°C, 10 ppm, day 14): −
- growth or no growth (85°C, 5 ppm, day 1): −
- growth or no growth (85°C, 5 ppm, day 2): −
- growth or no growth (85°C, 5 ppm, day 3): −
- growth or no growth (85°C, 5 ppm, day 4): −
- growth or no growth (85°C, 5 ppm, day 5): −
- growth or no growth (85°C, 5 ppm, day 6): −
- growth or no growth (85°C, 5 ppm, day 7): −
- growth or no growth (85°C, 5 ppm, day 8): −
- growth or no growth (85°C, 5 ppm, day 9): −
- growth or no growth (85°C, 5 ppm, day 10): −
- growth or no growth (85°C, 5 ppm, day 11): −
- growth or no growth (85°C, 5 ppm, day 12): −
- growth or no growth (85°C, 5 ppm, day 13): −
- growth or no growth (85°C, 5 ppm, day 14): −
- growth or no growth (85°C, 10 ppm, day 1): −
- growth or no growth (85°C, 10 ppm, day 2): −
- growth or no growth (85°C, 10 ppm, day 3): −
- growth or no growth (85°C, 10 ppm, day 4): −
- growth or no growth (85°C, 10 ppm, day 5): −
- growth or no growth (85°C, 10 ppm, day 6): −
- growth or no growth (85°C, 10 ppm, day 7): −
- growth or no growth (85°C, 10 ppm, day 8): −
- growth or no growth (85°C, 10 ppm, day 9): −
- growth or no growth (85°C, 10 ppm, day 10): −
- growth or no growth (85°C, 10 ppm, day 11): −
- growth or no growth (85°C, 10 ppm, day 12): −
- growth or no growth (85°C, 10 ppm, day 13): −
- growth or no growth (85°C, 10 ppm, day 14): −
- growth or no growth (90°C, 5 ppm, day 1): −
- growth or no growth (90°C, 5 ppm, day 2): −
- growth or no growth (90°C, 5 ppm, day 3): −
- growth or no growth (90°C, 5 ppm, day 4): −
- growth or no growth (90°C, 5 ppm, day 5): −
- growth or no growth (90°C, 5 ppm, day 6): −
- growth or no growth (90°C, 5 ppm, day 7): −
- growth or no growth (90°C, 5 ppm, day 8): −
- growth or no growth (90°C, 5 ppm, day 9): −
- growth or no growth (90°C, 5 ppm, day 10): −
- growth or no growth (90°C, 5 ppm, day 11): −
- growth or no growth (90°C, 5 ppm, day 12): −
- growth or no growth (90°C, 5 ppm, day 13): −
- growth or no growth (90°C, 5 ppm, day 14): −
- growth or no growth (90°C, 10 ppm, day 1): −
- growth or no growth (90°C, 10 ppm, day 2): −
- growth or no growth (90°C, 10 ppm, day 3): −
- growth or no growth (90°C, 10 ppm, day 4): −
- growth or no growth (90°C, 10 ppm, day 5): −
- growth or no growth (90°C, 10 ppm, day 6): −
- growth or no growth (90°C, 10 ppm, day 7): −
- growth or no growth (90°C, 10 ppm, day 8): −
- growth or no growth (90°C, 10 ppm, day 9): −
- growth or no growth (90°C, 10 ppm, day 10): −
- growth or no growth (90°C, 10 ppm, day 11): −
- growth or no growth (90°C, 10 ppm, day 12): −
- growth or no growth (90°C, 10 ppm, day 13): −
- growth or no growth (90°C, 10 ppm, day 14): −
- growth or no growth (RT, 5 ppm, day 1): −
- growth or no growth (RT, 5 ppm, day 2): −
- growth or no growth (RT, 5 ppm, day 3): −
- growth or no growth (RT, 5 ppm, day 4): −
- growth or no growth (RT, 5 ppm, day 5): −
- growth or no growth (RT, 5 ppm, day 6): −
- growth or no growth (RT, 5 ppm, day 7): +
- growth or no growth (RT, 5 ppm, day 8): +
- growth or no growth (RT, 5 ppm, day 9): +
- growth or no growth (RT, 5 ppm, day 10): +
- growth or no growth (RT, 5 ppm, day 11): +
- growth or no growth (RT, 5 ppm, day 12): +
- growth or no growth (RT, 5 ppm, day 13): +
- growth or no growth (RT, 5 ppm, day 14): +
- growth or no growth (RT, 10 ppm, day 1): −
- growth or no growth (RT, 10 ppm, day 2): −
- growth or no growth (RT, 10 ppm, day 3): −
- growth or no growth (RT, 10 ppm, day 4): −
- growth or no growth (RT, 10 ppm, day 5): −
- growth or no growth (RT, 10 ppm, day 6): −
- growth or no growth (RT, 10 ppm, day 7): −
- growth or no growth (RT, 10 ppm, day 8): −
- growth or no growth (RT, 10 ppm, day 9): −
- growth or no growth (RT, 10 ppm, day 10): −
- growth or no growth (RT, 10 ppm, day 11): +
- growth or no growth (RT, 10 ppm, day 12): +
- growth or no growth (RT, 10 ppm, day 13): +
- growth or no growth (RT, 10 ppm, day 14): +
